Structures can show the parent of a compound that is named as a salt.
Key:
[1] = target: HERG channels expressed in HEK293 cells (Homo sapiens, UniProt Q12809)
Excerpt: Human-ether-a-go-go related gene (HERG) encodes the cardiac rapidly activating delayed rectifier K^+ current (IKr). Inhibition of HERG K^+ current (IHERG) is a mechanism for drug-induced long QT syndrome.

Sequences of proteins named here, by UniProt entry; tags and fusion partners are left off. A change or cut given only in a name is not applied to a line headed by its entry.
UniProt Q12809: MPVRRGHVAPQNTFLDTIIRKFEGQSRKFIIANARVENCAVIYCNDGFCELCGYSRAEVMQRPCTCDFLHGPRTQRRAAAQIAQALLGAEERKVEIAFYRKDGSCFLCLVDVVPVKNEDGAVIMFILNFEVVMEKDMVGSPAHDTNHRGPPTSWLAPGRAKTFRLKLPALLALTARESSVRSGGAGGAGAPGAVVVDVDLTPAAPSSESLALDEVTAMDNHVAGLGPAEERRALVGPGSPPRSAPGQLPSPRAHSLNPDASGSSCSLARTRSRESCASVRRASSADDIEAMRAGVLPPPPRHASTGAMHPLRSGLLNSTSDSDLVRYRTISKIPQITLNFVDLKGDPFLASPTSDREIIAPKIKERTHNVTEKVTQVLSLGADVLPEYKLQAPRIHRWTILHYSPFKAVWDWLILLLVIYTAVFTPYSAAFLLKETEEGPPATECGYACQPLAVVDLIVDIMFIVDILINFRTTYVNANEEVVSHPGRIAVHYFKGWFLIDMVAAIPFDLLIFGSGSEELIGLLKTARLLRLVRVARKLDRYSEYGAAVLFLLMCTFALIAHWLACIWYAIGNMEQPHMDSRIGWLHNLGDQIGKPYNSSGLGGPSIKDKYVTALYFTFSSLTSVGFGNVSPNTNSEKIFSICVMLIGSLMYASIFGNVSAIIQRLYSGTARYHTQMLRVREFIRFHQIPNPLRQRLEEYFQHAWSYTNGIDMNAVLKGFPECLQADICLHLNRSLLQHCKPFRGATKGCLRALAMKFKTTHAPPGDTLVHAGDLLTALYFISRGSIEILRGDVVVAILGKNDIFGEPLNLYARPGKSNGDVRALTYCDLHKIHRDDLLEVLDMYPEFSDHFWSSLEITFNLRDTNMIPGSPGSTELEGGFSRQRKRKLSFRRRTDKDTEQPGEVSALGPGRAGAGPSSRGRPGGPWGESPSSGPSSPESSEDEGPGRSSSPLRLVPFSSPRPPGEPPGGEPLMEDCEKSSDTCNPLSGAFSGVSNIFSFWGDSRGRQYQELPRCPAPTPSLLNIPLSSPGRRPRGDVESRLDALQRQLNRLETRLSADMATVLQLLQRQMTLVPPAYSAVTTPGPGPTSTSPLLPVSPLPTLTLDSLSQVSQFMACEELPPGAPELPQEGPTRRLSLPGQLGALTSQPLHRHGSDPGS

Row | Structure (SMILES) | effect on E-4031 block of IHERG [1] | hearts with spontaneous or 3-sec pause triggered polymorphic ventricular tachycardias (TdP) (female rabbit hearts) | percentage of hearts with spontaneous or pause triggered TdP (female rabbit hearts) [%]
1 | COc1ccccc1OCC(O)CN1CCN(CC(=O)Nc2c(C)cccc2C)CC1 (stereo not drawn) [ranolazine, N-(2,6-dimethylphenyl)-4-[2-hydroxy-3-(2-methoxyphenoxy)propyl]-1-piperazineacetamide] | antagonized | – | –
2 | Cc1cccc(CCN2CCC(C(=O)c3ccc(NS(C)(=O)=O)cc3)CC2)n1 [E-4031, N-(4-[(1-[2-(6-methyl-2-pyridyl)ethyl]-4-piperidylcarbonyl]phenyl)methanesulfonamidedihydrochloride dehydrate] | – | 19 of 21 | 90

Reference: patent US20080153840A1, “REDUCTION OF CARDIOVASCULAR SYMPTOMS” (priority 2006, published 2008)
